In doi:10.1101/2022.08.01.502314 one finds binding data, which are given here for two substances.

Chains of the proteins cited; added tags and fusions are not shown. Lines headed by an entry give the natural chain unless they say otherwise; changes in a name come on top. A line that says so, or that is headed by a name, gives the form on record, which may keep a tag or linker.
UniProt P28347: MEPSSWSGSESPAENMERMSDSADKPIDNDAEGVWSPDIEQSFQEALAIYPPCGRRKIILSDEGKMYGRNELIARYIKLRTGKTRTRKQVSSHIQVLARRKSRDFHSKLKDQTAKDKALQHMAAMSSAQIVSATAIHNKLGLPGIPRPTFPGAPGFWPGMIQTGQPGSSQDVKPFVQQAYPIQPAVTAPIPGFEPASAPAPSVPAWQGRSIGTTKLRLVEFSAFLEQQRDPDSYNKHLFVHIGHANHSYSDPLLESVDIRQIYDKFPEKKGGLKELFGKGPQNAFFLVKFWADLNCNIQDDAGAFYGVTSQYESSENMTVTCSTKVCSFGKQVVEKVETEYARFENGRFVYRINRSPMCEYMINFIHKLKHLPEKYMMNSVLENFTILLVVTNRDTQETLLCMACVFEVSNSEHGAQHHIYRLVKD
UniProt Q15561: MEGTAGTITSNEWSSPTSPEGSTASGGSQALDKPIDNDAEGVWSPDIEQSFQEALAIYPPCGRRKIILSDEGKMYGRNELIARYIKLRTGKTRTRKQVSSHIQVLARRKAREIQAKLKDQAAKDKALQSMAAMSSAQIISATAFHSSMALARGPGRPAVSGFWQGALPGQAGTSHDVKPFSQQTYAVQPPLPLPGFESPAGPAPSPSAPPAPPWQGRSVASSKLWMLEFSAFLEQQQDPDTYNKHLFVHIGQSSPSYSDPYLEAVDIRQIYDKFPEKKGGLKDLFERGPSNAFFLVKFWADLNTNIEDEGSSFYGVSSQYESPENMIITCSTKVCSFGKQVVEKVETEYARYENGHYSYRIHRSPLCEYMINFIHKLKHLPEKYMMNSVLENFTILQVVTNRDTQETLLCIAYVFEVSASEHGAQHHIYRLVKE
UniProt P10275: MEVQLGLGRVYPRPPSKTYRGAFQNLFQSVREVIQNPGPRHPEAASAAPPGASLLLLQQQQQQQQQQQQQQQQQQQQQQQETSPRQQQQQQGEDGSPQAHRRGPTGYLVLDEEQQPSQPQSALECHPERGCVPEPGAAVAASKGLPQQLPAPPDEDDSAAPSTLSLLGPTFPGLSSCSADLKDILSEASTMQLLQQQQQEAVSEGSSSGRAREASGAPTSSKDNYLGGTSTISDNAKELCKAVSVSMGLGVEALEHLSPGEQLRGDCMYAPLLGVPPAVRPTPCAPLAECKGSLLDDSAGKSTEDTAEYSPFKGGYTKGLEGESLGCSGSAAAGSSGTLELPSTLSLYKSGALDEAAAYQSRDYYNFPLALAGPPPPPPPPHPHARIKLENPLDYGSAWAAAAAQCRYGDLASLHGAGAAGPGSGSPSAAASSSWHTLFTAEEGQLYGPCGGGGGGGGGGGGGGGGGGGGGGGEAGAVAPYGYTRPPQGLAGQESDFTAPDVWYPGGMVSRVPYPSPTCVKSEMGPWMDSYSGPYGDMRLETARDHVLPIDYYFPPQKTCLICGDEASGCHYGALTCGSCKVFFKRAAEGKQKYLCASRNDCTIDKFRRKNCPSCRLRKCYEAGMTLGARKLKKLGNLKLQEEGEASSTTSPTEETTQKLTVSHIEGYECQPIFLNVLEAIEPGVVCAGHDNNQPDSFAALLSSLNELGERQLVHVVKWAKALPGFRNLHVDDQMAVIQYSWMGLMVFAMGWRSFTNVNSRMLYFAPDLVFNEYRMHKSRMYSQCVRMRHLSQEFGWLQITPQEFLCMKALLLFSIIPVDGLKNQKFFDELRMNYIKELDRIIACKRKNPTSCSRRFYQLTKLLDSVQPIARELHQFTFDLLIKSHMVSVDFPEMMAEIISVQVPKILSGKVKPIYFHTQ
AR splicing variant V7 (AR_V7) expressed in HEK-293T cells (P10275-3, form named): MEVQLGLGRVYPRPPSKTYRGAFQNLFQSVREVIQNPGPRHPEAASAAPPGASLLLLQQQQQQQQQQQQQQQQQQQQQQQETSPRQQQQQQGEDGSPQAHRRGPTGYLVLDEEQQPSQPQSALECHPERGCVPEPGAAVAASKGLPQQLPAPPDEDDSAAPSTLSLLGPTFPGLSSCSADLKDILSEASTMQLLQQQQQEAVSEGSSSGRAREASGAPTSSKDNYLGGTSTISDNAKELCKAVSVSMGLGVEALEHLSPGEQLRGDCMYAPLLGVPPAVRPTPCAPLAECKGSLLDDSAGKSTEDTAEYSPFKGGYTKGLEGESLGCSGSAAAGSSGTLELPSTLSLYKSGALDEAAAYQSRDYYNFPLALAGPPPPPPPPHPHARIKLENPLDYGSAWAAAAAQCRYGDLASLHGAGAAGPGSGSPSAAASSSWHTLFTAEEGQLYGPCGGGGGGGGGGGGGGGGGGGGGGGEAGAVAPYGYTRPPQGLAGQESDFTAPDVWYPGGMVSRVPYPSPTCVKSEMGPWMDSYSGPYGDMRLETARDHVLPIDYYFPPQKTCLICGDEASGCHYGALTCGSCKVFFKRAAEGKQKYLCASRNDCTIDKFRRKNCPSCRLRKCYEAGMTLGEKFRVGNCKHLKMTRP

The target of assay [1] is 3xFLAG-tagged TEAD1 expressed in HEK-293T cells (UniProt P28347). Nature of the assay: co-IP.
Assay [2] addresses FLAG-tagged full-length TEAD4 expressed in HEK-293T cells (human) (UniProt Q15561). Nature of the assay: co-IP.

These are yes or no findings as the source states them, for the method shown. Binding seen in cells or lysates may run through a third protein. Some entries that bind do so weakly or less than the wild type.

Regarding “AR splicing variant V7 (AR_V7) expressed in HEK-293T cells (from UniProt P10275-3 1-644)”, the binding result in assay [1] and in assay [2] was “binds” throughout.

For “epitope-tagged full-length AR (AR-FL) expressed in HEK-293T cells (from UniProt P10275 1-920)”, the binding result in assay [2] is reported as “binds”.
